These are yes or no findings as the source states them, for the method shown. Some entries that bind do so weakly or less than the wild type.

Amino acid sequences for entries named in this document (tags omitted). Residues count along the entry.
UniProt Q5D869: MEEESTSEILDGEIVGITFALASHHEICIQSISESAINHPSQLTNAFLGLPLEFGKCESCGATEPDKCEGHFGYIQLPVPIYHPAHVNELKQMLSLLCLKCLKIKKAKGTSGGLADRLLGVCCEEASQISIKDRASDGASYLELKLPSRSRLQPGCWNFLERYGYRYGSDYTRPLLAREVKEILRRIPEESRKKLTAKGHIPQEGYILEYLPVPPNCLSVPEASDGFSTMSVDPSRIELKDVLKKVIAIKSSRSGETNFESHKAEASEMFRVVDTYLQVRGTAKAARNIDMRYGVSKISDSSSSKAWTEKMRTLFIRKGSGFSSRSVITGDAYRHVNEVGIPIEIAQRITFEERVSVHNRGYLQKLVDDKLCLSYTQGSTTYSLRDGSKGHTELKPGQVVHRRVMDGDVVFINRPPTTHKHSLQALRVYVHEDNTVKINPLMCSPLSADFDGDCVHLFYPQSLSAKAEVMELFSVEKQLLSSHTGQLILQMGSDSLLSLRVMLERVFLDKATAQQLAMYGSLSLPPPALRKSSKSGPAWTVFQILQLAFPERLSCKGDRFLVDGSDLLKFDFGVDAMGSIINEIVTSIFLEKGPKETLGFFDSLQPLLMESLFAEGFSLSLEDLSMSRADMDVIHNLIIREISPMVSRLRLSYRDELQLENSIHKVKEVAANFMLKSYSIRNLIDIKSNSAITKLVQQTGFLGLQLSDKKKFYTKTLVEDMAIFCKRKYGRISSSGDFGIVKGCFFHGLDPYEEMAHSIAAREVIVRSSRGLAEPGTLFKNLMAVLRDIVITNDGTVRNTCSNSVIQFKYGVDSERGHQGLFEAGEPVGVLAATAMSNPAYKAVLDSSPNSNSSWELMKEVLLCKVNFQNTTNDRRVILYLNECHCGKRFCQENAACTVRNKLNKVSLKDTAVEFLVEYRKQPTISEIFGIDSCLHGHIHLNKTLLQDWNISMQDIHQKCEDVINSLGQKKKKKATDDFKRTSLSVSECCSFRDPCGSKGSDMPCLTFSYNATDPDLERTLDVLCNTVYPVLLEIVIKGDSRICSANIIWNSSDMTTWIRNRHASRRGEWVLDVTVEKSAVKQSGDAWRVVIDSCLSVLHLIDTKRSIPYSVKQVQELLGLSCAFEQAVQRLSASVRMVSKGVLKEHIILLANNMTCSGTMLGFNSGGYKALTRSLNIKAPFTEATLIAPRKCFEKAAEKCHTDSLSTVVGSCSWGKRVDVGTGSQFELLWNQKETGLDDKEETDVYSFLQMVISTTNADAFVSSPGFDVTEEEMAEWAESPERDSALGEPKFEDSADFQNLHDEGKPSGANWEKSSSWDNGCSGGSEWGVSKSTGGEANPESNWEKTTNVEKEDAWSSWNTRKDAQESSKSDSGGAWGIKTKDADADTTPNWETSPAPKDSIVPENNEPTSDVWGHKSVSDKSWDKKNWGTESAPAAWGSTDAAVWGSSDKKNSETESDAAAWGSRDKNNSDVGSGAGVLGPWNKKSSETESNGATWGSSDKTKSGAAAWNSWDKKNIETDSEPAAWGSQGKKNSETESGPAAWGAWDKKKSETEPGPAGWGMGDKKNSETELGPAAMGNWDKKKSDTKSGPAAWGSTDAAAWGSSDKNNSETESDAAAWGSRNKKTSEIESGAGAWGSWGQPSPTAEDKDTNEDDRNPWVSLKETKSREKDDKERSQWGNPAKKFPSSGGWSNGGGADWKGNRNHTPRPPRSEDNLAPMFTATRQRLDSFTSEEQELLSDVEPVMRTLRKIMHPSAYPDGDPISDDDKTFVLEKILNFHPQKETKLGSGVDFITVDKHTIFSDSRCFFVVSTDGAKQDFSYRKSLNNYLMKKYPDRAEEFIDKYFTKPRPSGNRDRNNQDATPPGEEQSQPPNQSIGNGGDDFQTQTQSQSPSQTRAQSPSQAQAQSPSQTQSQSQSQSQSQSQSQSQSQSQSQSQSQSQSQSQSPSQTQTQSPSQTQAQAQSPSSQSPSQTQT
UniProt F4JW79, residues 1-712: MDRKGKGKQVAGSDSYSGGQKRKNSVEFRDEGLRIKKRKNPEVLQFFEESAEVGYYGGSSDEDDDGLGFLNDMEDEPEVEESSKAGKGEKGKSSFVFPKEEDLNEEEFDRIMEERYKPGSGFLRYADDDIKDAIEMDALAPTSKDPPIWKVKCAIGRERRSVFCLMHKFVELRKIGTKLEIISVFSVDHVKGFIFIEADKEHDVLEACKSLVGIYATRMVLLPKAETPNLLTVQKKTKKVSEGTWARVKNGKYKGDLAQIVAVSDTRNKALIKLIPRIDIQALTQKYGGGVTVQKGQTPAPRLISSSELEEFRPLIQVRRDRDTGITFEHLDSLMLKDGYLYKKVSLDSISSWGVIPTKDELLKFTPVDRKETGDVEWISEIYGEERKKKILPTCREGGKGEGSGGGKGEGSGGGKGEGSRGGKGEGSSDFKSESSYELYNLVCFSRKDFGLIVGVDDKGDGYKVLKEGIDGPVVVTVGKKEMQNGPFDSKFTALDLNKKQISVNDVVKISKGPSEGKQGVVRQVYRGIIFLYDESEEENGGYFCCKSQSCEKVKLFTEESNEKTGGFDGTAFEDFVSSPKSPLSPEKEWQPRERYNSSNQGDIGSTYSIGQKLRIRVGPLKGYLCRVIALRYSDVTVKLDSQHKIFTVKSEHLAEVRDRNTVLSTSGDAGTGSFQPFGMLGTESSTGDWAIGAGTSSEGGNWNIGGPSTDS

In test [1] the target is NRPE1, the largest subunit of Pol V, 3xFLAG-10xHis-tagged (Arabidopsis thaliana) (UniProt Q5D869). The test can be described thus: cryo-EM structure; contacts between subunits of Pol V, which was purified as a whole from T87 cells, in the KTF1-bound Pol V TEC structure; local map of NRPE5 at 3.7 Å, stalk in the 4.3 Å map.
Test [2] has the same target. Put plainly: co-purification with 3xFLAG-10xHis-NRPE1, subunits seen in the cryo-EM map; Pol V purified by anti-FLAG resin, Capto Q and Superose 6 from T87 cells; the subunits present are told from the cryo-EM maps.
Test [3] deals with T1, NRPE7 (Arabidopsis thaliana (endogenous in T87 cells)) (UniProt A6QRA1).
T1 sequence: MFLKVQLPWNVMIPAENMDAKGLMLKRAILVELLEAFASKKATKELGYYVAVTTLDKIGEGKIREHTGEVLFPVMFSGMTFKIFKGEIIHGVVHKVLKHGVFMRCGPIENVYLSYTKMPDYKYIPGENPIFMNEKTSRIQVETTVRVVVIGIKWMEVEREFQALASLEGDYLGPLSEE
Put plainly: cryo-EM structure; contacts between subunits of Pol V, which was purified as a whole from T87 cells, in the KTF1-bound Pol V TEC structure; local map of NRPE5 at 3.7 Å, stalk in the 4.3 Å map.

Test [4] addresses KOW domain-containing transcription factor 1 (KTF1), residues 1-712, the conserved N-terminal domain (Arabidopsis thaliana) (UniProt F4JW79). Put plainly: SEC; KTF1 (1-712) and SPT4 co-expressed in E. coli, co-purified by Ni-NTA, SUMOstar protease cleavage, heparin and Superose 6 10/300 GL in 20 mM HEPES pH 7.5, 100 mM KCl, 5 mM MgCl2, 2 mM DTT. (In general: SEC sorts molecules by how far they enter the pores of the column.)

B1: NRPE7 (protein, UniProt A6QRA1 1-178)
chain: T1 sequence
In the case of B1, in test [1], the binding entry is “binds”.

B2: NRP(D/E)4 (protein, UniProt Q6DBA5 1-205)
chain: MSEKGGKGLKSSLKSKDGGKDGSSTKLKKGRKIHFDQRTPPANYKILNVSSDQQPFQSSAAKCGKSDKPTKSSKNSLHSFELKDLPENAECMMDCEAFQILDGIKGQLVGLSEDPSIKIPVSYDRALAYVESCVHYTNPQSVRKVLEPLKTYGISDGEMCVIANASSESVDEVLAFIPSLKTKKEVINQPLQDALEELSKLKKSE
For B2, the binding entry in test [2] and in test [3] was “binds” throughout.

B3: NRP(B/D/E)11 (protein, UniProt Q38859 1-116)
chain: MNAPERYERFVVPEGTKKVSYDRDTKIINAASFTVEREDHTIGNIVRMQLHRDENVLFAGYQLPHPLKYKIIVRIHTTSQSSPMQAYNQAINDLDKELDYLKNQFEAEVAKFSNQF
As to B3, the binding result in test [2] is reported as “binds”.

B4: SPT4 (protein, UniProt Q94C60 1-116)
chain: MGSAPAQIPTSFGHELRACLRCRLVKTYDQFRDAGCENCPFFKMEEDHERIVEVTTPNFNGIISVMDPSRSWAARWLRIGKFAPGCYTLAVSEPLPEEMQHLCQEERVQYVLPKRM
Regarding B4, the binding entry in test [4] is recorded as “binds”.

B5: NRPE5a (protein, UniProt Q9M1J2 1-222)
chain: MEVKGKETASVLCLSKYVDLSSEESHRYYLARRNGLQMLRDRGYEVSDEDINLSLHDFRTVYGERPDVDRLRISALHRSDSTKKVKIVFFGTSMVKVNAIRSVVADILSQETITGLILVLQNHVTNQALKAIELFSFKVEIFQITDLLVNITKHSLKPQHQVLNDEEKTTLLKKFSIEEKQLPRISKKDAIVRYYGLEKGQVVKVNYRGELTESHVAFRCVW
As to B5, the binding entry in test [1] is “binds”.

Values taken from publication PMC10229537.
